From PubChem BioAssay AID296 (DTP/NCI, 2004)
The list does not hold the whole screen: it is rich in T/C values a quarter to a half above the control, in often repeated tests (any T/C) and in doses without a T/C. Other doses and runs of a compound stand elsewhere. T/C: endpoint of the treated group in % of that of the vehicle group. Schedule codes are those of the source, read here as Q, the interval in days (D) or hours (H), X, the number of doses. Some T/C values carry the count of animals alive at the toxicity check (mostly the fifth day); where none is given, no animal had died by that day. Some entries give survivors of the animals treated and no T/C: the source holds a T/C of zero for them, seemingly a mark for toxic or unscored doses. Survivors were counted at the toxicity check, usually on the fifth day, unless a day is given; later deaths do not show. Some entries were tested several times; their values stand side by side, smallest first.

Tested on: MX-1 breast xenograft, nude mice, tumor weight T/C
Experiment: NCI In Vivo Anticancer Drug Screen. Data for tumor model Human Mammary Carcinoma MX-1 Xenograft (intrarenal inoculation) in NU/NU Swiss (nude) mice
Conditions: T/C endpoint: mean tumor weight change, higher T/C = larger tumour; for T/C: evaluated on day 11
Outline: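 Read-out: treated (T) over vehicle control (C) ratio of survival or tumor size. Dosing in animals carrying the transplanted tumor.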

[1] = dose: 50.0 mg/kg/injection, schedule: Q01DX010 (sc), vehicle: Klucel (hydroxypropylcellulose) (HPC)
[2] = dose: 400.0 mg/kg/injection, schedule: Q01DX010 (sc), vehicle: Klucel (hydroxypropylcellulose) (HPC)
[3] = dose: 2400.0 mg/kg/injection, schedule: Q04DX003 (sc), vehicle: Klucel (hydroxypropylcellulose) (HPC)
[4] = dose: 300.0 mg/kg/injection, schedule: Q04DX003 (sc), vehicle: saline with Tween-80
[5] = dose: 800.0 mg/kg/injection, schedule: Q04DX003 (sc), vehicle: saline with Tween-80
[6] = dose: 600.0 mg/kg/injection, schedule: Q04DX003 (sc), vehicle: saline with Tween-80
[7] = dose: 300.0 mg/kg/injection, schedule: Q04DX003 (sc), vehicle: Klucel (hydroxypropylcellulose) (HPC)
[8] = dose: 2400.0 mg/kg/injection, schedule: Q04DX003 (sc), vehicle: saline with Tween-80

In the case of `Nc1ccccc1N`, the T/C [1] is reported as 125 % of control, the survivor count [2] is reported as 0 of 3 on day 11 and the survivor count (dose: 800.0 mg/kg/injection, schedule: Q01DX010 (sc), vehicle: Klucel (hydroxypropylcellulose) (HPC)) is reported as 0 of 3 on day 11.
In the case of `O=NN(CCCl)C(=O)NCCCl`, the T/C (dose: 8.0 mg/kg/injection, schedule: Q01DX010 (sc), vehicle: saline) is reported as 144 % of control, the survivor count (dose: 32.0 mg/kg/injection, schedule: Q01DX010 (sc), vehicle: suspension in saline) is reported as 0 of 3 on day 11 and the survivor count (dose: 64.0 mg/kg/injection, schedule: Q01DX010 (sc), vehicle: saline) is reported as 0 of 3 on day 11. For the same compound, the survivor count (dose: 64.0 mg/kg/injection, schedule: Q01DX010 (sc), vehicle: suspension in saline) was 0 of 3 on day 11 and the survivor count (dose: 120.0 mg/kg/injection, schedule: Q04DX003 (sc), vehicle: suspension in saline) was 1 of 3 on day 11.
`Cc1c2c(ccc3ccccc32)c[n+]2ccccc12` was tested, and the survivor count (dose: 25.0 mg/kg/injection, schedule: Q01DX010 (sc), vehicle: saline) was 0 of 3 on day 11.
In the case of `CC12CC(C(=O)O)C3(O)CC(C)(C1)CC(C)(C2)C3` (configuration not stated) (tested in a mixture with another compound), the survivor count [3] is reported as 3 of 6 on day 11.
With `Nc1ccc(C(OC(=O)c2cc3ccccc3c(Cc3c(O)c(C(=O)OC(c4ccc(N)cc4)(c4ccc(N)cc4)c4ccc(N)cc4)cc4ccccc34)c2O)(c2ccc(N)cc2)c2ccc(N)cc2)cc1` the survivor count (dose: 576.0 mg/kg/injection, schedule: Q04DX003 (sc), vehicle: saline with Tween-80) was 3 of 6 on day 11.
With `CC(=O)Nc1ccc(C(=O)C=O)cc1` the T/C (dose: 50.0 mg/kg/injection, schedule: Q01DX010 (sc), vehicle: saline with Tween-80) was 144 % of control.
For `O=S(=O)(O)c1cc(N=C=S)ccc1/C=C/c1ccc(N=C=S)cc1S(=O)(=O)O`, the survivor count (dose: 300.0 mg/kg/injection, schedule: Q04DX003 (ip), vehicle: saline) was 2 of 6 on day 11, the survivor count (dose: 600.0 mg/kg/injection, schedule: Q04DX003 (ip), vehicle: saline) was 0 of 6 on day 11 and the survivor count (dose: 1200.0 mg/kg/injection, schedule: Q04DX003 (ip), vehicle: saline) was 0 of 6 on day 11.
In the case of `O=C(O)CCCc1ccc(N(CCCl)CCCl)cc1`, the survivor count (dose: 16.0 mg/kg/injection, schedule: Q01DX010 (sc), vehicle: saline with Tween-80) is reported as 0 of 3 on day 11 and the survivor count (dose: 32.0 mg/kg/injection, schedule: Q01DX010 (sc), vehicle: saline with Tween-80) is reported as 0 of 3 on day 11.
`CC[As](=O)(O)CC` was tested, and the T/C (dose: 50.0 mg/kg/injection, schedule: Q04DX003 (sc), vehicle: saline) was 129 % of control and the survivor count (dose: 400.0 mg/kg/injection, schedule: Q04DX003 (sc), vehicle: saline) was 1 of 6 on day 11.
`Nc1ncnc2c1ncn2C1C=C(CO)C(O)C1O` (configuration not stated) was tested, and the survivor count (dose: 30.0 mg/kg/injection, schedule: Q04DX003 (sc), vehicle: saline) was 0 of 6 on day 11.
With `O=C(Nc1nncs1)c1ccncc1` the T/C [4] was 125 % of control.
`CC(=O)O[C@@H]1[C@@H](O)C2=C3[C@]4(C)[C@@H]1C(C)(C)C(=O)C[C@@H]4[C@]3(O)[C@H](OC(C)=O)[C@@]1(C[C@@H]1C)C2=O` was tested, and the survivor count (dose: 100.0 mg/kg/injection, schedule: Q01DX010 (sc), vehicle: saline with Tween-80) was 0 of 3 on day 11.
For `NC(=O)c1ncn(C2OC(CO)C(O)C2O)c1O` (configuration not stated), the survivor count [3] was 1 of 6 on day 11.
With `O=C(O[Si](Cc1ccccc1)(Cc1ccccc1)Cc1ccccc1)N(CCCl)CCCl` the survivor count (dose: 400.0 mg/kg/injection, schedule: Q04DX003 (sc), vehicle: saline with Tween-80) was 2 of 6 on day 11 and the survivor count [5] was 0 of 6 on day 11.
For `Oc1cc2c3c(c1)c1cc4c(cc1c[n+]3CC2)OCO4`, the survivor count (dose: 800.0 mg/kg/injection, schedule: Q04DX003 (sc), vehicle: water) was 2 of 5 on day 11.
In the case of `c1ccc([Te][Te]c2ccccc2)cc1`, the survivor count (dose: 600.0 mg/kg/injection, schedule: Q04DX003 (ip), vehicle: saline with Tween-80) is reported as 0 of 6 on day 11.
For `S=c1nc[nH]c2nc[nH]c12`, the T/C (dose: 3.13 mg/kg/injection, schedule: Q01DX010 (sc), vehicle: Klucel (hydroxypropylcellulose) (HPC)) was 133 % of control [2 of 2 alive on day 11], the survivor count (dose: 25.0 mg/kg/injection, schedule: Q01DX010 (sc), vehicle: Klucel (hydroxypropylcellulose) (HPC)) was 0 of 3 on day 11 and 1 of 3 on day 11 and the survivor count [1] was 0 of 3 on day 11. The survivor count (dose: 100.0 mg/kg/injection, schedule: Q01DX010 (sc), vehicle: Klucel (hydroxypropylcellulose) (HPC)) was 0 of 2 on day 11.
With `CC(=O)CC(C)=O.CC(=O)CC(C)=O.O=N[O-].O=N[O-].[Co]` the survivor count [4] was 3 of 6 on day 11 and the survivor count [6] was 0 of 6 on day 11.
In the case of `O=Cc1ccc(C=O)c(Cl)c1`, the T/C [7] is reported as 127 % of control and the T/C (dose: 1200.0 mg/kg/injection, schedule: Q04DX003 (sc), vehicle: Klucel (hydroxypropylcellulose) (HPC)) is reported as 127 % of control.
For `Nc1nc(=S)c2ncn(C3CC(O)C(CO)O3)c2[nH]1` (configuration not stated), the survivor count (dose: 200.0 mg/kg/injection, schedule: Q01DX010 (sc), vehicle: Klucel (hydroxypropylcellulose) (HPC)) was 0 of 3 on day 11 and the survivor count [2] was 0 of 3 on day 11.
In the case of `BrC[P+](CBr)(CBr)CBr`, the survivor count [5] is reported as 2 of 6 on day 11.
In the case of `C/C(=N\NC(N)=O)c1cccc(/C(C)=N/NC(N)=O)n1`, the T/C [4] is reported as 149 % of control and the survivor count [8] is reported as 3 of 6 on day 11.
With `[N-]=[N+]=CC(=O)CCC(=O)C=[N+]=[N-]` the survivor count (dose: 6.0 mg/kg/injection, schedule: Q01DX010 (sc), vehicle: DMSO) was 1 of 3 on day 11 and the survivor count (dose: 12.0 mg/kg/injection, schedule: Q01DX010 (sc), vehicle: DMSO) was 0 of 3 on day 11.
`CCN(CC)CCC(=O)c1ccccc1` was tested, and the survivor count [6] was 3 of 6 on day 11.
In the case of `CC1=C(/C=C/C(C)=C/C=C/C(C)=C/C=O)C(C)(C)CCC1`, the survivor count [6] is reported as 3 of 6 on day 11.
With `CCOC(=O)C(C)(C)Oc1ccc(Cl)cc1` the survivor count [8] was 1 of 6 on day 11.
With `O=C1c2ccccc2C(=O)c2c(NCCNCCO)ccc(O)c21` the T/C (dose: 12.5 mg/kg/injection, schedule: Q04DX003 (sc), vehicle: suspension in saline) was 125 % of control and the T/C (dose: 50.0 mg/kg/injection, schedule: Q04DX003 (sc), vehicle: suspension in saline) was 127 % of control.
For `O=S(=O)(N=N/C=C1\C=CC=CN1O)c1cccs1`, the survivor count [6] was 0 of 6 on day 11.
In the case of `COc1cc(NS(C)(=O)=O)ccc1Nc1c2ccccc2nc2ccccc12`, the T/C (dose: 0.94 mg/kg/injection, schedule: Q01DX010 (sc), vehicle: clinical formulation) is reported as 129 % of control, the survivor count (dose: 1.88 mg/kg/injection, schedule: Q01DX010 (sc), vehicle: clinical formulation) is reported as 1 of 3 on day 11 and the survivor count (dose: 6.0 mg/kg/injection, schedule: Q01DX010 (sc), vehicle: lactic acid) is reported as 0 of 3 on day 11 and 1 of 3 on day 11. For the same compound, the survivor count (dose: 7.5 mg/kg/injection, schedule: Q01DX010 (sc), vehicle: clinical formulation) was 0 of 3 on day 11.
In the case of `CC(C)(C)N1CC1CNC(=O)C(=O)NCC1CN1C(C)(C)C` (configuration not stated), the survivor count (dose: 50.0 mg/kg/injection, schedule: Q04DX003 (sc), vehicle: saline with Tween-80) is reported as 2 of 6 on day 11.
For `C=C1c2cccc(O)c2C(O)=C2C(=O)[C@]3(O)C(O)=C(C(N)=O)C(=O)[C@@H](N(C)C)[C@@H]3[C@@H](O)[C@H]12`, the survivor count (dose: 600.0 mg/kg/injection, schedule: Q04DX003 (ip), vehicle: Klucel (hydroxypropylcellulose) (HPC)) was 1 of 6 on day 11.
`COc1nc(=O)n(C2C=CC(=O)O2)cc1F` (configuration not stated) was tested, and the survivor count (dose: 150.0 mg/kg/injection, schedule: Q04DX003 (sc), vehicle: Klucel (hydroxypropylcellulose) (HPC)) was 0 of 6 on day 11, the survivor count [7] was 0 of 6 on day 11 and the survivor count (dose: 600.0 mg/kg/injection, schedule: Q04DX003 (sc), vehicle: Klucel (hydroxypropylcellulose) (HPC)) was 0 of 6 on day 11.
